Test results published in US20090305946A1.
These are yes or no findings as the source states them, for the method shown. In cells and extracts the contact can be indirect. Some binding calls cover weakened binding; strength is not graded here.

Chains of the proteins cited; added tags and fusions are not shown. Lines headed by an entry give the natural chain unless they say otherwise; changes in a name come on top. A line that says so, or that is headed by a name, gives the form on record, which may keep a tag or linker.
human G-protein GαoB (P09471, form named): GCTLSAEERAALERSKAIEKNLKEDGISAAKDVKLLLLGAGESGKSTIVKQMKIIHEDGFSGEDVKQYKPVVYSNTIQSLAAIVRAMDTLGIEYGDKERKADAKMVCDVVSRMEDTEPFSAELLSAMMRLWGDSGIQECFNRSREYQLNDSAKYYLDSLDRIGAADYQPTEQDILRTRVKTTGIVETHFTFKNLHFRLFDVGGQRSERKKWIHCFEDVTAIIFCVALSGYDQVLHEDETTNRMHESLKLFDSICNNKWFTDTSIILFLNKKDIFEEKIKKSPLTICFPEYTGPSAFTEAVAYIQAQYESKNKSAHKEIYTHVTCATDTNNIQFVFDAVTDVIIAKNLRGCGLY

Tests used:
[1] = molecular target: tail-less PS-2 (amino acids 1-410 of PS-2) (human) (UniProt P49810); assay: co-immunoprecipitation with PS-2 MAb, Western blot with anti-Go
[2] = molecular target: tail-less PS-2 (amino acids 1-410 of PS-2) (human) (UniProt P49810); assay: co-immunoprecipitation with MAb to PS-2, Western blot with anti-Go (FIG. 2)

- binding [1]: binds
- binding [2]: binds
Substance: human G-protein GαoB (from UniProt P09471 2-354)
